The source of these data is paper PMC7819943, “Rice protein-binding microarrays: a tool to detect cis-acting elements near promoter regions in rice”.

Protein sequences, listed by entry. Tags and fused reporters are not part of them.
UniProt Q0JBA9, entry or part of it: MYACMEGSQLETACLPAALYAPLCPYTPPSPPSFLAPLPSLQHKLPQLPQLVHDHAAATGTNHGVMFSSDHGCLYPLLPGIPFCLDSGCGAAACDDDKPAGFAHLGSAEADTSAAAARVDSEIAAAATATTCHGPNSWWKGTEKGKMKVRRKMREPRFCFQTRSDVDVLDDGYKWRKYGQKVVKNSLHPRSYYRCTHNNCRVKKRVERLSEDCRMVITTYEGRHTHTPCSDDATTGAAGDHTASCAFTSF

This is one part of the list.

The target in the assay is OsWRKY34 (Oryza sativa, UniProt Q0JBA9 1-250). Description: protein-binding microarray (RPBM); PBS, 2% BSA, 51.3 ng/ul salmon testes DNA, 50 uM zinc acetate, 200 nM TF, 25 C, 1 h; high values mean tight binding. To be noted: protein: recombinant; tags: N-terminal polyhistidine and DsRed monomer fusion (pET32a); label: CyDye5-dUTP incorporated in the synthesized complementary strand; 3' TTTTT single-stranded linker to array surface; dsDNA, one strand shown. A digest of the protocol: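 Ni–NTA purification followed expression in E. coli BL21-CodonPlus of transcription factors fused N-terminally to a polyhistidine tag and DsRed. At 200 nM in PBS with 2% BSA, salmon testes DNA and 50 µM zinc acetate, the protein was incubated for 1 h at 25 °C with a custom Agilent array that had been primer-extended with Cy5-dUTP and blocked with 2% BSA. After washing, the array was read on an Axon 4000B scanner. The binding signal is per-feature fluorescence intensity in arbitrary units.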
In the case of “TCGTAACCCCTCTTTCTCGTTTTCCGCGCGCACTCTTTTCCGGAGTCACCTAGTGCAG”, the binding signal was 11200 fluorescence intensity (a.u.).
As for “GTGCTCTACTTCTACTCGTCTCACGGCTAATCACCTGGTACGGAGTCACCTAGTGCAG”, the figure is 8920 fluorescence intensity (a.u.); as for “ATTCCACAAAGCTAGCGCCGCGGCCTCATCATTCCAGGCGCGGAGTCACCTAGTGCAG”, 8070 fluorescence intensity (a.u.).
As for “ATATCACTTATTTAAGTTTTAAAAAGTTCCATATTTTTCTCGGAGTCACCTAGTGCAG”, the binding signal was 8820 fluorescence intensity (a.u.).
As for “GGCTCGTGTAGGGTGGTGCGCCCCGGTGTTTCGGGAGGTTCGGAGTCACCTAGTGCAG”, the figure is 8800 fluorescence intensity (a.u.).
As for “TCGACGTCGTGTTTCATGATCTCAAGGTTAGCTGCACATCCGGAGTCACCTAGTGCAG”, the figure is 8360 fluorescence intensity (a.u.).
In the case of “AGAAAAAGGTGAGTTGGTGGTGTCATATATAGTGTGTGGTCGGAGTCACCTAGTGCAG” it was 8470 fluorescence intensity (a.u.); in that of “GTGTTCAGTTATTTCAGTTCAGTGATCTAGTTTCATCTCACGGAGTCACCTAGTGCAG”, 8070 fluorescence intensity (a.u.).
For the sequence “TGTTGCTTGCTAGCTTTAATCTATCGCAATGGATTAGGTTCGGAGTCACCTAGTGCAG”, the binding signal was 13000 fluorescence intensity (a.u.).
On to “CAGGACTGCGTGCTCCTTCTCGTTGTTCCTTACTCACCTTCGGAGTCACCTAGTGCAG”, for which the binding signal was 9560 fluorescence intensity (a.u.).
For the sequence “CATATTATAAGTCGTTTTGACTTTTTTTTCTTAGTCAATCCGGAGTCACCTAGTGCAG”, the binding signal was 12100 fluorescence intensity (a.u.).
In the case of “TTGGTGCCTGCTGTGTTCATATTTTTCTACCCCTTTCTCCCGGAGTCACCTAGTGCAG” it was 8610 fluorescence intensity (a.u.).
Regarding “GGTTTGACCGGCGGGAGGACGCTTTGACCGAGGTGGGAGGCGGAGTCACCTAGTGCAG”, the binding signal is 8840 fluorescence intensity (a.u.).
As for “ATTGTAATGTCACCTTTGCAAATCCTTAACTGCTCGGATACGGAGTCACCTAGTGCAG”, the figure is 9580 fluorescence intensity (a.u.).
As for “ATACTTTACTCGTGACTTATATTTTTAATTTTTTTATTTTCGGAGTCACCTAGTGCAG”, the figure is 9400 fluorescence intensity (a.u.).
As for “TTATGCCTTATTATATGTTTATCCTTCTTAGACTAATGTTCGGAGTCACCTAGTGCAG”, the figure is 9200 fluorescence intensity (a.u.); as for “GTACTACATGCCATTGCCATCTCAACTACGTATTAGTTAGCGGAGTCACCTAGTGCAG”, 11500 fluorescence intensity (a.u.); as for “TCCATTATACTTCGAATCTTCAAGACTTGTACTTATACCTCGGAGTCACCTAGTGCAG”, 8860 fluorescence intensity (a.u.).
In the case of “GCCTTCTTTACGTGTATTTTTATTGGGAATAAGTTCACTTCGGAGTCACCTAGTGCAG”, the binding signal was 8080 fluorescence intensity (a.u.).
As for “GGCCACCGCGCGCCTCTCCCCATCGTCCGCCGTGACACGCCGGAGTCACCTAGTGCAG”, the figure is 11300 fluorescence intensity (a.u.).
Consider “TCCTTTTTTCAGAACCGAACAATCCATTTTGTTCTGCAACCGGAGTCACCTAGTGCAG”, for which the binding signal is 8460 fluorescence intensity (a.u.).
For “GAGAGGGAGAGAGAGAGAGGTGGGGTTTTGATGGAAGTACCGGAGTCACCTAGTGCAG”, the binding signal was 8540 fluorescence intensity (a.u.).
In the case of “AATTCCCGTAATACTTTAATTATCCCATGTTTATCGGATCCGGAGTCACCTAGTGCAG” it was 9070 fluorescence intensity (a.u.); in that of “CCGTGTTATCTACTTCCTTCGTTCTATAATATAAGAGATTCGGAGTCACCTAGTGCAG”, 10100 fluorescence intensity (a.u.).
In the case of “TACCATATACAAGTGCATAGTCTGATCCATATATTTATGACGGAGTCACCTAGTGCAG” it was 9170 fluorescence intensity (a.u.).
In the case of “TTAATAACTTTGGCCTCCTTTTTTTTTTTTTTTCATTCCTCGGAGTCACCTAGTGCAG” it was 10300 fluorescence intensity (a.u.); in that of “AAGACGGCTAAACGCAACCACGAATTCAGGGGAGGGGAATCGGAGTCACCTAGTGCAG”, 9490 fluorescence intensity (a.u.).
On to “AGGCCACAAAAAGACTCTCTCCTGTACGACTATGCATTTCCGGAGTCACCTAGTGCAG”, for which the binding signal was 9240 fluorescence intensity (a.u.).
As to “GCATCCACGTGCACAGGGTATCATGTTTAATTCGTGACTTCGGAGTCACCTAGTGCAG”, the binding signal was 8520 fluorescence intensity (a.u.).
As for “CTGACAAGCGCCCATCTTCCTTGTCTCCGCTTCGTCTTCGCGGAGTCACCTAGTGCAG”, the binding signal is 11000 fluorescence intensity (a.u.).
With “TCTAACGTAAGGTTTGTGCAAATTCCACCATCTATACGCCCGGAGTCACCTAGTGCAG”, the binding signal was 8160 fluorescence intensity (a.u.).
As for “ACCTCAGTCACCTCACGGCTTTCCTCTGACAGATGCCGTCCGGAGTCACCTAGTGCAG”, the figure is 10800 fluorescence intensity (a.u.); as for “AGATATCCAATCAAGGCTTTCATCGCTAGTCATCTATATCCGGAGTCACCTAGTGCAG”, 8880 fluorescence intensity (a.u.); as for “ACGCTCTCAACTATTTTATCCATACGCACTAGTTATCGATCGGAGTCACCTAGTGCAG”, 9440 fluorescence intensity (a.u.).
In the case of “ATCTGGGGCGGGGATGCGAATGAGGGGTCCTCGCCCGCGACGGAGTCACCTAGTGCAG” it was 10600 fluorescence intensity (a.u.); in that of “CACACTTTCCTTCAGCTAGTTTATAAATATGCTCGAGGACCGGAGTCACCTAGTGCAG”, 8130 fluorescence intensity (a.u.); in that of “TCAATCTCGAAAAATTTTCATTGAGCGTCAATCTTTTCATCGGAGTCACCTAGTGCAG”, 8350 fluorescence intensity (a.u.).
“CCCTATCGAACGACCACCGAAACCATCATCATTCATCACCCGGAGTCACCTAGTGCAG”: the binding signal is 9470 fluorescence intensity (a.u.).
In the case of “CACTCTCATATTGTCCCACATGTTAGTATTTATAATGGTACGGAGTCACCTAGTGCAG” it was 9340 fluorescence intensity (a.u.).
As to “ACCCACAAACGATCCATCCATCACTCGATCGTAACAACTTCGGAGTCACCTAGTGCAG”, the binding signal is 10200 fluorescence intensity (a.u.).
In the case of “CGCCCTCGCTTCGCTTCCACTCCACCTCTCTCTCGATTCACGGAGTCACCTAGTGCAG” it was 10800 fluorescence intensity (a.u.).
In the case of “CCCCACGAAACCAGTCCACCACCATCTCTAGAACTTTCCACGGAGTCACCTAGTGCAG” it was 10000 fluorescence intensity (a.u.).
